Results: publication PMC4860834
No constants are given. Whether binding was seen depends on the method and setting. Binding seen in cells or lysates may run through a third protein. Binding calls can cover weak binding; strength is not graded here. Sequences can lack the tags named with a protein.

Molecular target: T1, His-tagged dysbindin-1A (human) (UniProt Q96EV8)
T1 sequence: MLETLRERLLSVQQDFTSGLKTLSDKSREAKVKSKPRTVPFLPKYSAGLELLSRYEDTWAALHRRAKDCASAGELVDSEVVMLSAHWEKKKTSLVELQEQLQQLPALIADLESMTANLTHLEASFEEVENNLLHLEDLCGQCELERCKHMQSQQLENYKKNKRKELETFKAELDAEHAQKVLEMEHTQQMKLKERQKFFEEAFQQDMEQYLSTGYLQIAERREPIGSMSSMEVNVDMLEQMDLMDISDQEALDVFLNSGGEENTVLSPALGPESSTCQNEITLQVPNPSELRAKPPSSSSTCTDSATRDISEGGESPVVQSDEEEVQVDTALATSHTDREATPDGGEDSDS
Experiment: pull-down; His-tag pull-down: purified His-tagged bait (His-dysbindin-1A or His-Smt3) incubated with cell lysates holding HA-tagged dysbindin-1A or -1B; HA-tagged proteins detected in the pull-down fraction; only the target purified

binding: binds
Substance: HA-tagged dysbindin-1B (from UniProt Q96EV8-2)
